Data reported in the supplement of paper PMC11006884.
The entries are a selection whose mix differs from that of the whole data set.

Amino acid sequences for entries named in this document (tags omitted). A change or cut given only in a name is not applied to a line headed by its entry.
UniProt Q9BRT3: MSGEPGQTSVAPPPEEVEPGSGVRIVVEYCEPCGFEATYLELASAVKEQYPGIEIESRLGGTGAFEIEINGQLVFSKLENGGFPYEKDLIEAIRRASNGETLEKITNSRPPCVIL
UniProt Q9BVJ6: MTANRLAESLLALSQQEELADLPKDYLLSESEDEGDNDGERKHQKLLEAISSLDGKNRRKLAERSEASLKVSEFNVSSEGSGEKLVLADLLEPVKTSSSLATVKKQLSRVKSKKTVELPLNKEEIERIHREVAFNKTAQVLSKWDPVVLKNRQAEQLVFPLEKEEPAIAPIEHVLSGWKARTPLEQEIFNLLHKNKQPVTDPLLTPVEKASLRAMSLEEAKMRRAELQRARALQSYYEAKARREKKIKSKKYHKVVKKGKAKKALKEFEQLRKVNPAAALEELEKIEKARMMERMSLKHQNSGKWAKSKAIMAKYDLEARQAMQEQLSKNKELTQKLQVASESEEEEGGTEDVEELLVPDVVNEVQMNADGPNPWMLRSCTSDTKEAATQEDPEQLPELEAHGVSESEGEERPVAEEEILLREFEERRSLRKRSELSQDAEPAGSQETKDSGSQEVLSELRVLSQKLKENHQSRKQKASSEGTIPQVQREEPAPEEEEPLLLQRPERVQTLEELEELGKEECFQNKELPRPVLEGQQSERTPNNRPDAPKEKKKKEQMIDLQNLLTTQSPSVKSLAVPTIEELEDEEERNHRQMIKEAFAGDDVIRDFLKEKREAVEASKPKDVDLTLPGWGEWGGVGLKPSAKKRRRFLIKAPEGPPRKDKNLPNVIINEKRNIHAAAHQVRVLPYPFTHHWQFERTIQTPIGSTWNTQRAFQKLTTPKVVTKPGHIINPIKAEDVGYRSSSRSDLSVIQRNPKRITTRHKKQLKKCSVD
UniProt Q9H0B6: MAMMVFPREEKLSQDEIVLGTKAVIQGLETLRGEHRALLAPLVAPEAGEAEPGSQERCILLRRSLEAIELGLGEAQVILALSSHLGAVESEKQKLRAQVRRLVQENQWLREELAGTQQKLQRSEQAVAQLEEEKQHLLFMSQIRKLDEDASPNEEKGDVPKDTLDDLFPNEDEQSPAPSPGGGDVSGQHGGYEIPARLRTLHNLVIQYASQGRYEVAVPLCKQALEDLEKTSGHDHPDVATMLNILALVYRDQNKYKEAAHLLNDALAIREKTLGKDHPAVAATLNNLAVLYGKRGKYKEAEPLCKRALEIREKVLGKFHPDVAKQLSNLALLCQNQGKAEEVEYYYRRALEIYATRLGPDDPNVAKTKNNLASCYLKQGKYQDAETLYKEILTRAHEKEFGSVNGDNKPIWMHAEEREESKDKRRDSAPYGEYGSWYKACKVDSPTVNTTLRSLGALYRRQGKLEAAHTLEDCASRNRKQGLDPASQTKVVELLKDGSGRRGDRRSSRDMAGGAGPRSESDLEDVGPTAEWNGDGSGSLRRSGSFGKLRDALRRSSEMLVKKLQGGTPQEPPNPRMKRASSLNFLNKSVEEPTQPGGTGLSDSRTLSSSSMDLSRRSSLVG
UniProt Q9H1K1: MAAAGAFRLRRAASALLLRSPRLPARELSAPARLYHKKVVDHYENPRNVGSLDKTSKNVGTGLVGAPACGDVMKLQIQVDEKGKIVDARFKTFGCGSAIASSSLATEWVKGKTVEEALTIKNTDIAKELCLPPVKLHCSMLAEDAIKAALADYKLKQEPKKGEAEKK
UniProt Q9BT67: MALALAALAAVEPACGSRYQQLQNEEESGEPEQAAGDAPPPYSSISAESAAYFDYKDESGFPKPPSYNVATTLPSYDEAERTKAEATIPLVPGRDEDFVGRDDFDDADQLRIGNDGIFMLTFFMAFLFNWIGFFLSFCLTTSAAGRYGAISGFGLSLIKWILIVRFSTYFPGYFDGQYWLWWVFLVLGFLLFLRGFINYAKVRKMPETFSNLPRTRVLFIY
UniProt Q9BRU9: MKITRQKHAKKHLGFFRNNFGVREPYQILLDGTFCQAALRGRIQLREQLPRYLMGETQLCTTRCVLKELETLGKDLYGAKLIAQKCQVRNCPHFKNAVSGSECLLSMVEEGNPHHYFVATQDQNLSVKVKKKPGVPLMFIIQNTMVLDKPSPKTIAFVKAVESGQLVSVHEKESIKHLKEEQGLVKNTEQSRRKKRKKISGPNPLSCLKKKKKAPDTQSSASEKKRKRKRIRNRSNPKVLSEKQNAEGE
UniProt Q9BRS2: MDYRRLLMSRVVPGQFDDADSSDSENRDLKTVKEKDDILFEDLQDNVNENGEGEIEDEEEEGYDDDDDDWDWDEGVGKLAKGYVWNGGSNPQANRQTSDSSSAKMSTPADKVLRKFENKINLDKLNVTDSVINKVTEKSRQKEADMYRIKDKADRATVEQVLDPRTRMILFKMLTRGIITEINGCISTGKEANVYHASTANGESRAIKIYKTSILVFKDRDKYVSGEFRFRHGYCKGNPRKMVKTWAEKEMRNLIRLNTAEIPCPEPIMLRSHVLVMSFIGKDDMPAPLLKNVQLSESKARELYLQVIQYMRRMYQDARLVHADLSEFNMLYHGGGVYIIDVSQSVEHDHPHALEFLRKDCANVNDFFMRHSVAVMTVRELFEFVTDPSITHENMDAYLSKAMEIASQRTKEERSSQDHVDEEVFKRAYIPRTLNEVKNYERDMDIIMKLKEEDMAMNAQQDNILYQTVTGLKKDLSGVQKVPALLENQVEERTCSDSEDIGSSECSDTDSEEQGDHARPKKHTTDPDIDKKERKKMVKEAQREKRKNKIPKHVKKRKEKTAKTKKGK
UniProt Q9H0R6: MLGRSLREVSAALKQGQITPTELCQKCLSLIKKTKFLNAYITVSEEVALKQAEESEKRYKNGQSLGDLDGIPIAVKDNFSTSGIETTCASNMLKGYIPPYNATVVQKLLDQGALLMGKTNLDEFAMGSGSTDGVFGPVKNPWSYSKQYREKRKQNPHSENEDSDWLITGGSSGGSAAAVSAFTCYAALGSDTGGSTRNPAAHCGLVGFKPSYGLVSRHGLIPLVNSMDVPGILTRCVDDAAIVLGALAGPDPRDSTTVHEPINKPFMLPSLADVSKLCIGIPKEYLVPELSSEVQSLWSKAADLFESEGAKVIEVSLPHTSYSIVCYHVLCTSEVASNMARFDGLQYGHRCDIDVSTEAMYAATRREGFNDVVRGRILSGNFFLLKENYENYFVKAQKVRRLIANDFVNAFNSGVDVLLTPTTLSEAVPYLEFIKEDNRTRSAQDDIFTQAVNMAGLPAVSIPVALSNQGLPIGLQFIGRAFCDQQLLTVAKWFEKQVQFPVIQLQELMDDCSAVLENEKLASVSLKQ
UniProt Q9H019: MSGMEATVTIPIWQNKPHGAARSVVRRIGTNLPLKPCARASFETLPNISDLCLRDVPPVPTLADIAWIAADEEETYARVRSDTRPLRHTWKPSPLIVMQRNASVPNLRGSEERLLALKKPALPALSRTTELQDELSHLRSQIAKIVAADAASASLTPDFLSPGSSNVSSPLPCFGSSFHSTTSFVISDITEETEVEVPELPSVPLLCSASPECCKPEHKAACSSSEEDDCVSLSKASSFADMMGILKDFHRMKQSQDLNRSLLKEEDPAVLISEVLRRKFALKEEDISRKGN
UniProt Q9H1B7, whole entry, looked up: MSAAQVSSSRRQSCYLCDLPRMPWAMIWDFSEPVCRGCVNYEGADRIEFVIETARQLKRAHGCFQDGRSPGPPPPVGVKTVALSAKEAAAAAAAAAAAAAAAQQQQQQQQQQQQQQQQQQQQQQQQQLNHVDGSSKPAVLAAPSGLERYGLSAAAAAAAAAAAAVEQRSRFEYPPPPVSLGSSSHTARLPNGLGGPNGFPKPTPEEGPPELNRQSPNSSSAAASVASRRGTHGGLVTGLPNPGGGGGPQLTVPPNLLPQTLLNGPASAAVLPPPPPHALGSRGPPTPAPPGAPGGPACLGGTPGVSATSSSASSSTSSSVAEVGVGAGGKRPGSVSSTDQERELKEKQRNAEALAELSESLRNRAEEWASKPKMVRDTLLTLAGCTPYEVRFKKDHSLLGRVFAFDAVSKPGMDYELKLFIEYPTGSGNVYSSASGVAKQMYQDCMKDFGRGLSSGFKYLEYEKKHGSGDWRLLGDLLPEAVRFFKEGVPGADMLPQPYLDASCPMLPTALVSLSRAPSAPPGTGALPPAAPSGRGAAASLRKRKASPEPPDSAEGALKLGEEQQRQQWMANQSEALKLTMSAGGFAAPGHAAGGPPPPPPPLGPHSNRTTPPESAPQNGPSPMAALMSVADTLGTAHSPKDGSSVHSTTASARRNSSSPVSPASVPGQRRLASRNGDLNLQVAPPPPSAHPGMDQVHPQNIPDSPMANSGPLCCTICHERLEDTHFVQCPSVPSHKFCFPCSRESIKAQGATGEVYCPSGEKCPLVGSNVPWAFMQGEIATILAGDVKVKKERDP
UniProt Q9BVP2: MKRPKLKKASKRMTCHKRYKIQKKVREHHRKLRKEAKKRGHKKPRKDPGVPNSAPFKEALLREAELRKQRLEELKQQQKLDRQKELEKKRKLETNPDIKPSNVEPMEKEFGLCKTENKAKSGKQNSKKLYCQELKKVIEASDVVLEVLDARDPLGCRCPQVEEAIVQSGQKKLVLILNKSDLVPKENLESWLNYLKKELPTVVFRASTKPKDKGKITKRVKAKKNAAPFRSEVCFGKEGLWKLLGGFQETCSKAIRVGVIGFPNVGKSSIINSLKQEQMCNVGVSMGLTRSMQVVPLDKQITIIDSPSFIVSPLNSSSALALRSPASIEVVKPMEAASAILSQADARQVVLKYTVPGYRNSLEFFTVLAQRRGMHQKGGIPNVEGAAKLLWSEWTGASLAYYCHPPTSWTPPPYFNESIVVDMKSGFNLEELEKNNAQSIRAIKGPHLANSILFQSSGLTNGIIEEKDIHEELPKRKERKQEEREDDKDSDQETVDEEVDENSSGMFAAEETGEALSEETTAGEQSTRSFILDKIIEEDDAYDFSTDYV
UniProt Q9H0A0: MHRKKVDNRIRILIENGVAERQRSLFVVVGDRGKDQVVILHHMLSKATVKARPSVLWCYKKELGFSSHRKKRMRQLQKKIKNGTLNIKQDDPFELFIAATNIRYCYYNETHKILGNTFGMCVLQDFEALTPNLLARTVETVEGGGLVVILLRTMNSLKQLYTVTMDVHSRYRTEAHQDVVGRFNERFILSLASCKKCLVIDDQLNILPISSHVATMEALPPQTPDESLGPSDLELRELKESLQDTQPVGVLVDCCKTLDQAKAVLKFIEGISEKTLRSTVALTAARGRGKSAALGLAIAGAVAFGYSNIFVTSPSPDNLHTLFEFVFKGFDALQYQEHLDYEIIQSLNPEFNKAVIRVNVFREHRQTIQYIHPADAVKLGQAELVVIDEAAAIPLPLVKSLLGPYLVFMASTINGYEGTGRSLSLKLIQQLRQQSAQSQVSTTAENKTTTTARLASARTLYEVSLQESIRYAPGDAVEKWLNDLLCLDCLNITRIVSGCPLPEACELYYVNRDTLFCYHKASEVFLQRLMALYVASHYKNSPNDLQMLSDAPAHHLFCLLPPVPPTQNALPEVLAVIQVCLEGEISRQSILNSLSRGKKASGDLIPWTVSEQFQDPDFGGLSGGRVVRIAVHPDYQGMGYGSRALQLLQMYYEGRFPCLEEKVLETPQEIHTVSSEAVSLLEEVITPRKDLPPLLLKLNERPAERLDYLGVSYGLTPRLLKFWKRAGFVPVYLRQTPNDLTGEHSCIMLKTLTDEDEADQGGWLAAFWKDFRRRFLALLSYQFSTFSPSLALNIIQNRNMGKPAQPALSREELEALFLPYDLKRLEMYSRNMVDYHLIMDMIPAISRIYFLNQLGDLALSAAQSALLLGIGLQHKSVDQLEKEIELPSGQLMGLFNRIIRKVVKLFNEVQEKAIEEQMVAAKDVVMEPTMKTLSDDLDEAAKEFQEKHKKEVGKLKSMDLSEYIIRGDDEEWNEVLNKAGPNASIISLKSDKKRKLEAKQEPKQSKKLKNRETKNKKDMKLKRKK
UniProt Q9BXF6: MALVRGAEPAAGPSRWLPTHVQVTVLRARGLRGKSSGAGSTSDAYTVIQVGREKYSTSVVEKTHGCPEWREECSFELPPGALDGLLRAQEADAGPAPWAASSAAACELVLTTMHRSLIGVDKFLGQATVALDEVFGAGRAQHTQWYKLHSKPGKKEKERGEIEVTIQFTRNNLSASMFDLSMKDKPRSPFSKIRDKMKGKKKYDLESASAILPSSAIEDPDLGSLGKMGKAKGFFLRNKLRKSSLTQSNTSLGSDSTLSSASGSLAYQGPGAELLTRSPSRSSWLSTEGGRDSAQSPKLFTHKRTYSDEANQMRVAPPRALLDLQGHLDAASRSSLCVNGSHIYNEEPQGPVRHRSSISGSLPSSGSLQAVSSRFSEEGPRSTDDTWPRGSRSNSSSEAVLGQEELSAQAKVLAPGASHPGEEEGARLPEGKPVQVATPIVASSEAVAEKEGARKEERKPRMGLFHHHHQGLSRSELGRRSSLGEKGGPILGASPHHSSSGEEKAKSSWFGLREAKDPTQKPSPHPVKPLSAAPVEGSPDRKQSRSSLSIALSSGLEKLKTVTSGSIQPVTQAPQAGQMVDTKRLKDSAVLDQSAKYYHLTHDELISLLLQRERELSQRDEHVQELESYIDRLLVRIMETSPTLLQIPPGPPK

These targets were tested with COC(=O)C#Cc1ccccc1 [methyl 3-phenylpropiolate] (assay: log2 ratio of iodoacetamide-alkyne labeling of the cysteine site, DMSO over compound (competition); higher = stronger covalent engagement of the cysteine by the compound, active = 1 or more). Conditions: 500 µM; treatment time 1 h; system: HEK293T cell lysate.
Procedure, shortened: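 Electrophile (500 µM) or vehicle was added to HEK293T lysate (2 mg/mL) for 1 h at ambient temperature before iodoacetamide alkyne labelling (1 h) and click coupling to sCIP-TMT reagents. After pooling, overnight trypsin digestion at 37 °C, streptavidin enrichment and acid elution, peptides were measured by Orbitrap Eclipse LC-MS/MS with FAIMS and quantified in FragPipe. Each cysteine's log2 competition ratio compares mean control-channel with mean compound-channel reporter intensity, control over compound. Data came from duplicate channels across three replicates, excluding cysteines quantified in only one replicate.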

log2 ratio of iodoacetamide-alkyne labeling, inactive:
UniProt Q9BRT3_C33 0.739, UTP14A C380 (UniProt Q9BVJ6) 0.429, MRPL37 C268 (UniProt Q9BZE1) 0.221, FTO C397 (UniProt Q9C0B1) 0.625, KATNAL1 C313 (UniProt Q9BW62) -0.227, KLC2 C441 (UniProt Q9H0B6) 0.624, HNRNPUL1 C391 (UniProt Q9BUJ2) 0.248, ISCU C95 (UniProt Q9H1K1) 0.21, NDFIP1 C15 (UniProt Q9BT67) 0.466, ITPA C146 (UniProt Q9BY32) 0.383, UniProt Q9BTY7_C368 -0.125, DDX24 C639 (UniProt Q9GZR7) 0.032, XRN2 C159 (UniProt Q9H0D6) 0.565, COPS4 C70 (UniProt Q9BT78) 0.101, TNKS1BP1 C716 (UniProt Q9C0C2) 0.621, UTP23 C207 (UniProt Q9BRU9) 0.409, UniProt Q9BTX1_C468 0.715, RIOK1 C264 (UniProt Q9BRS2) 0.179, PELO C204 (UniProt Q9BRX2) -0.0708, COPS4 C378 (UniProt Q9BT78) 0.312, QRSL1 C512 (UniProt Q9H0R6) 0.615, UniProt Q9H019_C52 0.442, UniProt Q9H1B7_C385 0.164, UniProt Q9GZU8_C44 0.13, UniProt Q9BXJ9_C82 0.159, UniProt Q9BSH4_C112 -0.152, EFHD1 C8 (UniProt Q9BUP0) 0.546, GNL3 C234 (UniProt Q9BVP2) 0.259, NAT10 C486 (UniProt Q9H0A0) 0.0616, MRPL37 C188 (UniProt Q9BZE1) 0.241, KIFC1 C663 (UniProt Q9BW19) 0.589, GINS3 C188 (UniProt Q9BRX5) 0.255, SETD2 C1471 (UniProt Q9BYW2) 0.322, TNKS1BP1 C232 (UniProt Q9C0C2) 0.444, RAB11FIP5 C337 (UniProt Q9BXF6) 0.653, UniProt Q9BTE3_C108 0.16, UniProt Q9BSD7_C110 0.358
